# Source: PubChem BioAssay AID1347426 (Functional Genomics Laboratory (NCATS/FGL), 2020)
# Screen size: about 31,000 sequences; about 1,400 (4.5%) were called active.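 The calls were made as follows: active = median seed-adjusted z-score above 1 or below -1; inactive = the rest.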 This is one part of the list.
# Experiment: Novel Modifiers of Survival Motor Neuron (SMN) Protein: Gene Identification via Genome-wide siRNA Screen
# Details: HEK293T SMN2-luciferase reporter, siRNA knockdown, 72 h; actives lie on both sides
# Excerpt: Spinal muscular atrophy (SMA) is the most common neuromuscular autosomal recessive disorder and one of the leading genetic causes of infant death. SMA results from mutations inducing loss of function or deletion in the survival of motor neuron-1 gene (SMN1), leading to deficiency of the survival motor neuron (SMN) protein. Although a second nearly identical gene, SMN2, is retained in humans, its expression primarily produces an aberrantly spliced isoform that is largely unstable and quickly degraded. We performed a genome-wide RNAi screen using a cell-based reporter assay to identify genes and pathways that modulate SMN protein stability. The screen identified over 200 genes that led to the greatest increase or decrease in luciferase expression.
# Using HEK293T cells stably expressing a luciferase reporter that combines the promoter and splicing based cassettes in tandem with the major portion of the native SMN2 cDNA with luciferase, we performed a genome-wide RNAi screen to identify modulators of SMN protein levels. Luciferase is expressed when full-length SMN protein is generated with luminescence signal proportional to SMN protein levels. Our luciferase-based reporter assay was used to screen Ambion Silencer Select Human Druggable Genome siRNA library (10418 genes, 3 unique siRNAs per gene) using lipid-based reverse transfection.
# Briefly, 1 pmol of each siRNA was spotted to a well of a 384-well plate (Corning, Corning, NY) and 20 microL of serum-free DMEM containing […] of Lipofectamine RNAiMax (Life Technologies, Carlsbad, CA) was then added to each well. Transfected cells were maintained at 37 degrees C in 5% CO2 for 72 hours, 20 microL of ONE-Glo Reagent (Promega) was added to wells for luciferase quantification. Raw luminescence reads were normalized to Ambion(R) Silencer(R) Negative Control #2 siRNA, then log10 transformed. A robust statistical measure of median absolute deviation (MAD) to standardize siRNA activities from each screen. Common Seed Analysis was used to help prioritize clean hits as opposed to those appearing to arise from seed based off-target effects. Candidate modulators were defined as the genes having a MAD score greater than 1.0 or less than -1.0.
row,Sequence,median seed-adjusted z-score
1,GAUUCACGCCUUAUACAAATT against KLRA1,inactive: 0.918
2,GGACAAAAGAGAGGACAUATT against ZNF626,inactive: 0.185
3,GGAGAGCGACCAUCUUUAATT against PFKFB4,inactive: 0.149
4,AGUGAGACUGUACCUCUAATT against ATAD3C,inactive: -0.535
5,CGGUCCCUGUACUCAGAAATT against TRAP1,inactive: -0.637
6,CCAAUGCCCAGAUUAUGUATT against CELSR2,inactive: -0.493
7,GCCUGUCCCAGACCAUUGATT against KLC4,inactive: 0
8,GGUUUUCGCUCAGACUACATT against ENPP6,inactive: -0.548
9,GCAUCACGAUGAUUGAGUUTT against MAP2K6,inactive: -0.889
10,GAGUUGAACCUGCGCAUGATT against KRT14,inactive: -0.127
11,GUCUGAGGCCUUUAUCUUATT against RHOQ,inactive: -0.328
12,CGGGAGCUCCUACAUCUAUTT against PSMB6,inactive: -0.579
13,GCUAAGAAGAGAUAAUGAATT against MLKL,inactive: 0
14,GGAUGAAUUGACUCAAGUATT against AKAP14,inactive: 0.136
15,GAUAAUGAGUUGUUAUACATT against EDEM1,inactive: -0.175
16,GUCCUUUAACUGAAGCUUUTT against NDUFB9,inactive: -0.982
17,ACCAUAAUCUAAAAGGCCATT against GOLGA2L1,inactive: 0.487
18,GGCACUUAUUAUGAGGCUATT against SOD1,inactive: -0.8
19,CACUGAGUUCUCUAUAUUUTT against CERK,inactive: 0
20,GAGUUGUUCUAUGAUGUGATT against PDILT,inactive: -0.0994
21,GGAGUUUCAUUACAGCCGUTT against CDX1,inactive: 0
22,GGAAUACAUCUAUUGCCUUTT against CNGA2,inactive: -0.0447
23,GCACAGAACUCAACGCUGATT against COX4I2,inactive: -0.0202

# In another format: results already given
row | Sequence | median seed-adjusted z-score
9 | GCAUCACGAUGAUUGAGUUTT against MAP2K6 | inactive: -0.889
10 | GAGUUGAACCUGCGCAUGATT against KRT14 | inactive: -0.127
11 | GUCUGAGGCCUUUAUCUUATT against RHOQ | inactive: -0.328
12 | CGGGAGCUCCUACAUCUAUTT against PSMB6 | inactive: -0.579
13 | GCUAAGAAGAGAUAAUGAATT against MLKL | inactive: 0
14 | GGAUGAAUUGACUCAAGUATT against AKAP14 | inactive: 0.136
15 | GAUAAUGAGUUGUUAUACATT against EDEM1 | inactive: -0.175
16 | GUCCUUUAACUGAAGCUUUTT against NDUFB9 | inactive: -0.982
17 | ACCAUAAUCUAAAAGGCCATT against GOLGA2L1 | inactive: 0.487
18 | GGCACUUAUUAUGAGGCUATT against SOD1 | inactive: -0.8
19 | CACUGAGUUCUCUAUAUUUTT against CERK | inactive: 0
20 | GAGUUGUUCUAUGAUGUGATT against PDILT | inactive: -0.0994
21 | GGAGUUUCAUUACAGCCGUTT against CDX1 | inactive: 0

# (continued)

row,Sequence,median seed-adjusted z-score
1,GCCGUUCCAGUGUGAGUUUTT against ZIC2,inactive: -0.162
2,GGACUAUGAAGAUUUUAAATT against APOBEC3C,inactive: -0.103
3,CAAAGGUUAUUCUGCAUAUTT against CTSO,inactive: 0.322
4,GCCUUUAGAUCUUCUAGUUTT against ZNF136,inactive: 0.229
5,AGUGUUAAAUCAGAUGUUATT against PRDM9,inactive: -0.15
6,CGAGUACCAUCAGGAGAGATT against ZNF219,inactive: 0.127
7,CCCGGAGAAUUCUCAAUGATT against NENF,inactive: -0.778
8,CAAAUUGGAUUGGAAAUGATT against TAAR1,inactive: 0.0724
9,GGACACCAUUUUCAAAUCATT against CYP24A1,inactive: 0.136
10,GGAGAGUUACUUGACCGUATT against RPS6KA6,inactive: -0.0821
11,GAAGAAUGAUUAAAUGGUUTT against ACCS,inactive: -0.49
12,GACCGGAUAUGGGCUAUAATT against NEK7,inactive: 0
13,UCCUCAAGAGUUCACCUAUTT against FCRL2,inactive: -0.294
14,GGACUUCGGGUGUUUGACATT against MYL6,inactive: -0.228
15,GAAACUGAAUGGGAAAGAATT against NOBOX,inactive: -0.426
16,CGACAUCAUCAAUAGACGATT against AQR,active: -1.56
17,GCUUUGACAUUGAACAGCUTT against INMT,inactive: 0.863
18,CGAAGAUUCAUAACUCUCATT against LACE1,inactive: 0.166
19,CAACUGCCCUUCAAUUUCATT against DLL4,inactive: 0.299
20,GAAGUGGACCUAUAGCCUUTT against DUSP12,inactive: -0.0123
21,GGCCGUUACUUACCAGAGUTT against UROD,active: 1.11
22,GGGAAAAUGAUGACCAUAATT against FABP9,inactive: 0.527
23,GGCCGUUACUGAUUGAGCUTT against CAPN7,inactive: 0.125

row,Sequence,median seed-adjusted z-score
1,GGUUAACGAAGGCACAAAATT against ADAM9,inactive: 0
2,GUAUGAACAGCAAACCUAUTT against EIF3L,inactive: 0.656
3,UGAUGAAUGUUAUCGAGAATT against RFC2,inactive: 0.00126
4,UCACGCACCUCAACAAUGATT against CDK5R1,inactive: 0.373
5,CCUUCGAAGAAAUCCAGAATT against PIM1,inactive: -0.409
6,GGAACAAAGACUAAAAACATT against TUBB6,inactive: 0.63
7,CAGACAGCCUUGAAUCUCATT against GPR133,inactive: -0.681
8,GAGUGCCUAUAUUUCUAAATT against ACBD7,inactive: -0.542
9,CGACAUCAGCUGAUAAUCATT against NPY1R,inactive: 0.76
10,GCAGAGUGCUUCCCAGUGATT against JRK,inactive: -0.624
11,GGAGCAAGGCAAGUUCUAUTT against TNFRSF13B,inactive: 0.152
12,GGAAUGGUUUAAAAUAGAATT against NUDT3,inactive: 0.674
13,GCAUUUGAAGCGAUAGUCATT against DNM3,inactive: 0
14,CCUGGGAUCUACUACUUCATT against C1QTNF2,inactive: 0.0697
15,CGAUUAUCGUUUACAUCAUTT against USP25,inactive: 0.0461
16,CUGGAUAAGUGUUUCGAAATT against AP3S2,inactive: 0.521
17,CGGGCUACAUCAUAUGCUUTT against GPR171,inactive: -0.449
18,CCAUAUAGAUGUAACGAAUTT against ZNF329,inactive: -0.0877
19,UGAGUGUGGGCGUAACUCATT against KLK12,inactive: 0.243
20,AGACCUCCUUAAUAAUGAATT against FOXP1,inactive: -0.198
21,CAGAGUAUUUGGAAAAAGATT against MNX1,inactive: 0.734
22,GCUUUUCUCUUACAAUUCATT against ZNF557,inactive: -0.197
23,ACAUCGUACUCUAUAACAATT against CHRNA10,inactive: 0.521
